# Assay results as given in the supplement of paper PMC3334620.
# The full ranking holds about 33,000 sequences; the median of “E-score (-0.5 to 0.5)” is about -8e-05, and the highest 2% start at about 0.23. The list shows a part of the results.
# Target: T1, Nrg2 (UniProt P38082)
# T1 sequence: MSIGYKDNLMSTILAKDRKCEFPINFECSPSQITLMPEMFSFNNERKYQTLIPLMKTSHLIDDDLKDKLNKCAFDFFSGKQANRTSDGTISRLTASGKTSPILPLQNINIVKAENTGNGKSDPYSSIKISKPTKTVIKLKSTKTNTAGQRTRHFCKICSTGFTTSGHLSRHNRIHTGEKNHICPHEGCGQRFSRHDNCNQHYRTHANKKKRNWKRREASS
# Test: PBM E-score (8-mer binding enrichment) (E-score (-0.5 to 0.5)); higher = stronger / more preferred TF binding
# Details: protein concentration: 100 nM; construct: GST-full length
# Procedure, shortened: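 The E-score, a modified Wilcoxon-Mann-Whitney statistic, was computed by the Universal PBM Analysis Suite for every ungapped eight-base word pooled with its reverse complement. Scans behind it were normalised with masliner after bound GST-tagged yeast transcription factors were detected with fluorescent anti-GST. The proteins, at about 100-200 nM, had been applied to universal all-10-mer Agilent arrays made double-stranded by primer extension.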
row,Sequence,PBM E-score
1,CCTACAGA,-0.0971
2,AATGGGGT,0.133
3,CTGGAGCC,-0.248
4,AGGCTCCC,-0.279
5,CAGATCTC,-0.0544
6,ATTTAGGC,0.0621
7,ACCAAAAA,0.22
8,AGCACACC,-0.197
9,AACCAAAC,-0.142
10,GAGTGAAA,-0.0743
11,GACGTCTC,-0.0301
12,ATCGTGCC,-0.145
13,ATCTAGGG,0.108
14,TCCAACCA,-0.0134
15,CTGAGCAA,-0.0589
16,CCTTGCAC,0.116
17,ATTGCCAC,0.0443
18,AGCGATTA,-0.0337
19,GAGCGTAC,-0.157
20,GAACGTTC,-0.0394
21,AGCCGAAG,-0.104
22,CCGTGGCC,-0.277
23,CAGGACCA,-0.0167
24,ATCCATGA,-0.14
25,CTGAAAAG,0.095

row,Sequence,PBM E-score
1,ATGCGCAA,0.182
2,ATTATCCC,0.168
3,ACCAGCTA,0.114
4,ACTGCCCA,0.05
5,CGTGAAAG,-0.0377
6,CCATAGGG,0.00266
7,CTAAGTGC,-0.00554
8,CGTCATTC,0.2
9,TGCAAGCA,0.0247
10,AGTCGTCG,-0.142
11,AGATGATC,0.164
12,GTCTGCGA,-0.0083
13,CATGCCTC,-0.109
14,AGCCTTCG,-0.23
15,CATGCTCA,0.0109
16,CTAGCGGC,-0.34
17,CAGGCAGA,-0.084
18,GTAGCTAA,0.0457
19,AGAGGGTG,-0.13
20,AACTGGTC,-0.0552
21,AGTAGGCC,0.0655
22,GCCGCGTA,-0.176
23,CGAGGATA,0.132
24,AAGCCTAT,-0.0255
25,GAAGCGAC,0.0489

row,Sequence,PBM E-score
1,ATCGTGGA,0.0974
2,GCCTCAAA,0.00933
3,AACCAAGG,0.113
4,AAAGGCGT,-0.195
5,CTATGCCA,0.0832
6,GCTAAACA,0.124
7,CTGCAGGC,-0.222
8,CAACCACG,-0.0473
9,GGTTATAA,-0.0307
10,AACACACG,-0.1
11,AACGTTGA,-0.0301
12,CATACACC,-0.0934
13,TATGTTCA,0.0853
14,AGGCTGCC,-0.25
15,TGCACCAA,-0.0972
16,CAAGGGTA,0.15
17,ATTGCCTC,0.14
18,CGATTGTA,0.184
19,CGGGCGTC,-0.0115
20,CTCGATTA,0.251
21,GAAAACTA,0.107
22,ATATGGCC,-0.0218
23,AGCTAAAT,-0.0748
24,CGGAGAGC,-0.196
25,ACGTGGCT,-0.0848

row,Sequence,PBM E-score
1,GGAAACAC,-0.0852
2,AGAGTTGC,0.129
3,GCAAGGCA,0.0374
4,GTCCGCCA,-0.0221
5,TTGCTAAA,-0.0838
6,AATGCTTG,-0.117
7,GCAGATGC,-0.0372
8,GGCCACAC,-0.0192
9,TCGTTGCA,-0.023
10,AAGCCAAT,-0.0447
11,CACAGGCG,-0.00844
12,TAACAAAA,0.0323
13,ACATTGTA,0.129
14,GCTCGCCA,0.113
15,CATTTCAG,-0.0267
16,GCCGCAGA,0.0603
17,ACTGGTAA,0.0662
18,GCTCCCAA,-0.0754
19,AGCAGTTG,0.0315
20,AAACGTGA,0.0367
21,CAACCTGC,0.0403
22,ACTACCGC,-0.0511
23,ACCGCGGC,0.0385
24,CCCTTCGG,0.0466
25,AAGGCTCG,-0.24

# Some of the entries so far, with bars between the fields.
row | Sequence | PBM E-score
22 | GCCGCGTA | -0.176
23 | CGAGGATA | 0.132
24 | AAGCCTAT | -0.0255

# Remaining list, next part:

row,Sequence,PBM E-score
1,TGCCTCAA,0.00238
2,AGACTCCC,-0.404
3,CACTCCAC,-0.00112
4,AGACTCCT,-0.0545
5,ACGCTTCG,0.0597
6,CGCCGGCC,-0.166
7,TCACGAAA,0.0618
8,ATCTAGGC,-0.174
9,CGCTTATA,0.14
10,CGACGAAC,0.142
11,ACTTTCTG,0.0001
12,CGTCTTTC,-0.185
13,CTGTGTCA,-0.0513
14,AGATGCCC,0.0908
15,AAGCAAAG,-0.109
16,GCAGTAGA,-0.185
17,CGCGATCA,0.134
18,CCTATTAC,0.0565
19,AATCCAAC,-0.0675
20,GCGAATGA,0.182
21,ACGTTTCT,-0.0896
22,CTCTCCAC,-0.189
23,AGGTGGTA,0.0866
24,CACCTCTG,-0.0522
25,ACGACCCT,0.1

# Quoted at random: 3 entries already listed.
row,Sequence,PBM E-score
7,TCACGAAA,0.0618
15,CTGAGCAA,-0.0589
6,GCTAAACA,0.124

# More records:

row,Sequence,PBM E-score
1,AGTTTAAA,0.0162
2,AGATGTTG,-0.0673
3,ATGAGGGA,-0.0703
4,AGCTAGCA,-0.191
5,ACAGTTAT,0.0731
6,GACGCTCA,-0.122
7,GCAGAAGC,-0.0396
8,AGGTCGGG,-0.142
9,GACCCCAA,-0.0335
10,CCATGTGC,0.0328
11,AATGCAGT,0.0384
12,ACTGGATG,-0.0725
13,AGCCAGGG,0.0594
14,AGCCTCTC,-0.241
15,CCTGCGAC,-0.0943
16,CAGCAGCG,-0.0287
17,CCACACCG,-0.00232
18,CGTAAGCA,-0.2
19,AGATAAAC,0.147
20,CAGTCCAG,-0.185
21,CGGGCCAG,-0.0425
22,CTTGGGGC,0.124
23,AAGACATG,-0.218
24,CAGCGCAA,0.0307
25,GGCCCAAA,0.0526

row,Sequence,PBM E-score
1,ACTGGACC,-0.0246
2,ATCATGAA,0.159
3,GAATGTGC,-0.0362
4,AAAGTCAG,0.0997
5,CTTACGAC,-0.15
6,CGCATTAG,-0.116
7,CGTGCGAG,0.105
8,AAAACAAG,0.173
9,CAAACTGC,0.0245
10,GCCCCTAA,0.144
11,AGCACGTA,-0.111
12,CAGTGTGG,-0.15
13,GATACGCC,-0.0355
14,ACGCGTAC,0.0223
15,AAGCGCTA,0.0465
16,AAGCGTAT,0.0185
17,AATTAACT,0.19
18,CTCTACGC,0.0332
19,CCTCGCCG,-0.135
20,CGCGGGCA,0.281
21,CAGCCTAC,0.0702
22,ACGGGCGC,0.0207

# For reference, part of the list above:
row,Sequence,PBM E-score
17,AATTAACT,0.19
18,CTCTACGC,0.0332
19,CCTCGCCG,-0.135
